# Measurements as given in publication doi:10.1101/2020.11.11.367672 (bioRxiv, 2020).
# Sequences of proteins named here, by UniProt entry; tags and fusion partners are left off.
# UniProt Q9H6T3: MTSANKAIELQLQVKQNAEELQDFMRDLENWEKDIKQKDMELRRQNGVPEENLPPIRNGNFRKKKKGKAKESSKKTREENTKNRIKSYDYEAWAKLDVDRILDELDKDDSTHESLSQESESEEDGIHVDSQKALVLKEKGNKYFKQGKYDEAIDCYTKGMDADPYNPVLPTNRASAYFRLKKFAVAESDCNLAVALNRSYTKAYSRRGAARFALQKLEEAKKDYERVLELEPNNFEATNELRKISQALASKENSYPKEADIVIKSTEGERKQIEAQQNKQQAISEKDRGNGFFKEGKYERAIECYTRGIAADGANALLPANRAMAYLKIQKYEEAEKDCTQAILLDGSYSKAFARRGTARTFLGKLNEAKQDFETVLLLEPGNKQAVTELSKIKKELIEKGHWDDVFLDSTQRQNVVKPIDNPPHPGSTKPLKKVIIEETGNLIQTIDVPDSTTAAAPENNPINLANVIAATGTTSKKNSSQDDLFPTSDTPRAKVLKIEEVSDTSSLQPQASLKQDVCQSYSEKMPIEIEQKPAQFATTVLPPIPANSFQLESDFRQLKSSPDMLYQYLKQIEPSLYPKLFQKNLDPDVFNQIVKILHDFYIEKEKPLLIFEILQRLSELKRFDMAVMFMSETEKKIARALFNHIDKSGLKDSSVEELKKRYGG
# UniProt Q9Y265: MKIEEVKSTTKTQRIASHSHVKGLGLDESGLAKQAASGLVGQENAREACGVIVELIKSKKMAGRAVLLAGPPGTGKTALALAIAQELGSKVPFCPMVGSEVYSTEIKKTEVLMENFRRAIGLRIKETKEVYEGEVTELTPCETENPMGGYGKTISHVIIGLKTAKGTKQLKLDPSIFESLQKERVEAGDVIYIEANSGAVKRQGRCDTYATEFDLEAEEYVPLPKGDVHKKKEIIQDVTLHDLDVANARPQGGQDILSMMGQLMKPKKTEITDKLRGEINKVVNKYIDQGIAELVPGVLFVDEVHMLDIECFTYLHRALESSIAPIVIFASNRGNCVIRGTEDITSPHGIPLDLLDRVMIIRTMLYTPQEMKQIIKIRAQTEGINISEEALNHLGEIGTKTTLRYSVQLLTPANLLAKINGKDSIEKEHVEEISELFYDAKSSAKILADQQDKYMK
# No constants are given. Whether binding was seen depends on the method and setting. Sequences can lack the tags named with a protein.
# T1: TRBP (yeast two-hybrid fusion) (human) (UniProt Q15633)
# T1 sequence: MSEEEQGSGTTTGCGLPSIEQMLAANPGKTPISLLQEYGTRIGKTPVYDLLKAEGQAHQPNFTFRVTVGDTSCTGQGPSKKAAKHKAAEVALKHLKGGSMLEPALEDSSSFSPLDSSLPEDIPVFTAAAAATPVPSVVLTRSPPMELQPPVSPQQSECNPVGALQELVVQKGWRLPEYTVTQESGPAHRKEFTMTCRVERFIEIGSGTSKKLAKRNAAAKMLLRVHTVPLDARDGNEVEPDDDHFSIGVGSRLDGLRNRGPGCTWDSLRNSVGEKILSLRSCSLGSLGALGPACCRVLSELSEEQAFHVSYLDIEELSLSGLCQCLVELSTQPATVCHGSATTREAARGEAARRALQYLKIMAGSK
# How the values were obtained:
# [1] = target: T1, TRBP (yeast two-hybrid fusion) (human); assay: two-hybrid
# [2] = target: RPAP3 (yeast two-hybrid fusion) (human) (UniProt Q9H6T3); assay: two-hybrid
Molecule,binding [1],binding [2]
RUVBL1 (yeast two-hybrid fusion) (from UniProt Q9Y265 1-456),no binding,
"PACT (yeast two-hybrid fusion) (protein, UniProt O75569 1-313) MSQSRHRAEAPPLEREDSGTFSLGKMITAKPGKTPIQVLHEYGMKTKNIPVYECERSDVQIHVPTFTFRVTVGDITCTGEGTSKKLAKHRAAEAAINILKANASICFAVPDPLMPDPSKQPKNQLNPIGSLQELAIHHGWRLPEYTLSQEGGPAHKREYTTICRLESFMETGKGASKKQAKRNAAEKFLAKFSNISPENHISLTNVVGHSLGCTWHSLRNSPGEKINLLKRSLLSIPNTDYIQLLSEIAKEQGFNITYLDIDELSANGQYQCLAELSTSPITVCHGSGISCGNAQSDAAHNALQYLKIIAERK",,no binding
